We go through 36 targets from the supplement of paper PMC12819154, “High-throughput peptide-centric local stability assay extends protein–ligand identification to membrane proteins, tissues and bacteria” (Nature Structural & Molecular Biology, 2025).

Sequences of proteins named here, by UniProt entry; tags and fusion partners are left off. A change or cut given only in a name is not applied to a line headed by its entry.
UniProt Q8K0R6: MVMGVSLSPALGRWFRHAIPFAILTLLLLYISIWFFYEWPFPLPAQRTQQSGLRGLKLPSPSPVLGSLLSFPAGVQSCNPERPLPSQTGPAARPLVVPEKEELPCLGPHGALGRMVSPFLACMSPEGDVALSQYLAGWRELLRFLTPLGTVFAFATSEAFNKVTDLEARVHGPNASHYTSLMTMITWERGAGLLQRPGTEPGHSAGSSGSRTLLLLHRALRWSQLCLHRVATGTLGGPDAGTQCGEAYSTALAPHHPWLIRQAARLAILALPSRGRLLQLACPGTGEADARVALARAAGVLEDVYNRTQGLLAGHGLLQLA
UniProt Q8CHP5: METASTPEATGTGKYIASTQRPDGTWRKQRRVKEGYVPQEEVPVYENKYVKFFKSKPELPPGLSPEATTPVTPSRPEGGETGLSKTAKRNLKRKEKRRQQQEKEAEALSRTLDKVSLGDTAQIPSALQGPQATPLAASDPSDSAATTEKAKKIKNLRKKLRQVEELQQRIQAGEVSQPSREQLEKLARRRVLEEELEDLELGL
UniProt Q8CFX1: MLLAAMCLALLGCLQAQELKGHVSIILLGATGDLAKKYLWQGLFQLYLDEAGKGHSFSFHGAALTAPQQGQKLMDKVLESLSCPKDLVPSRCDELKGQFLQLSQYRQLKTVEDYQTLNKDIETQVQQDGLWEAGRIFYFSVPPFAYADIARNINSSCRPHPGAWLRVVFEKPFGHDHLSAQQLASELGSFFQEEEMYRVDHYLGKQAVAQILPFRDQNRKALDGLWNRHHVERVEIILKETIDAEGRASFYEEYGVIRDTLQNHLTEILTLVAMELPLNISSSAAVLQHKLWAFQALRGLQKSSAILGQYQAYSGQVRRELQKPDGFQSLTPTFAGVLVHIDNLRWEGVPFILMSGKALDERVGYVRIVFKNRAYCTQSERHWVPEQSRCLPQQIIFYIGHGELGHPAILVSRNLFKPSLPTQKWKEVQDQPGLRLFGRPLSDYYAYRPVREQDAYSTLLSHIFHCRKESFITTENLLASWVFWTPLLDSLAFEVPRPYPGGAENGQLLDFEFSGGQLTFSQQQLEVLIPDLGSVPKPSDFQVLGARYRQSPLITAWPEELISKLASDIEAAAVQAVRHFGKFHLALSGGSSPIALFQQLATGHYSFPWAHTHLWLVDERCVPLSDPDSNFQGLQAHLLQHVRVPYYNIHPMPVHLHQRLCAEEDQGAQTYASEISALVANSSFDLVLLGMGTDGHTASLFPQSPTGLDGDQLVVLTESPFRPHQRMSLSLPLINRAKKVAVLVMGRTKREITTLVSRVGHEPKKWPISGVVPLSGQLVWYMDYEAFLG
UniProt Q8CHC8: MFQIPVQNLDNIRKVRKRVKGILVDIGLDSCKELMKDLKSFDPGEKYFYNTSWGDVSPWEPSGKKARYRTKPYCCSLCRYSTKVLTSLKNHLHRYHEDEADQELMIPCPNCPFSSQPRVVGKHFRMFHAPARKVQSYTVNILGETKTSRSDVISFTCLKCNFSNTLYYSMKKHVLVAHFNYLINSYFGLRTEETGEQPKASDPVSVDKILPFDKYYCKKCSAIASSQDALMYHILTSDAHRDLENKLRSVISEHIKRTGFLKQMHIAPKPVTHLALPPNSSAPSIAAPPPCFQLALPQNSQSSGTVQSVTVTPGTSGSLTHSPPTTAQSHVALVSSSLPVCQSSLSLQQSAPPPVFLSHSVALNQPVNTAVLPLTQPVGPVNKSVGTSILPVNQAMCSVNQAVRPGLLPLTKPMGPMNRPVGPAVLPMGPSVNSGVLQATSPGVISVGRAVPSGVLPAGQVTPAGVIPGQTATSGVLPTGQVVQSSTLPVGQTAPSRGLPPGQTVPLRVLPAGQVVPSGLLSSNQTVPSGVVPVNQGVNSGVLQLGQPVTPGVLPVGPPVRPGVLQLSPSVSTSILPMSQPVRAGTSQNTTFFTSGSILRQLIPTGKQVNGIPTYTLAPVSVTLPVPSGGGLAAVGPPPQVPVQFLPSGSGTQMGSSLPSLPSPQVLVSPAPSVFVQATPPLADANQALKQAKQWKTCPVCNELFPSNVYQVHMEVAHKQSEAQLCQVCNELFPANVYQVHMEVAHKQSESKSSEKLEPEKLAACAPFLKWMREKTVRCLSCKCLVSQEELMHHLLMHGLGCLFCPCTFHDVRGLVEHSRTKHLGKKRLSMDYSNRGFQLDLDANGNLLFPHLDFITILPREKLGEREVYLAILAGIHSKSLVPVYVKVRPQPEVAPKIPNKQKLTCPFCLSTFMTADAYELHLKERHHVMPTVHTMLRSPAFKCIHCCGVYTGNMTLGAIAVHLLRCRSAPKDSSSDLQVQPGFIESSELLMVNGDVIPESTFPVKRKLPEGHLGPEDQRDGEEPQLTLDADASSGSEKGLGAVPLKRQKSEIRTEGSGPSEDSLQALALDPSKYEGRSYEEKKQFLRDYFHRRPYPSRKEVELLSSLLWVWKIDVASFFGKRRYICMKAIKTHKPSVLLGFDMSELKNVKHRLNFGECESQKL
UniProt Q8CIP4: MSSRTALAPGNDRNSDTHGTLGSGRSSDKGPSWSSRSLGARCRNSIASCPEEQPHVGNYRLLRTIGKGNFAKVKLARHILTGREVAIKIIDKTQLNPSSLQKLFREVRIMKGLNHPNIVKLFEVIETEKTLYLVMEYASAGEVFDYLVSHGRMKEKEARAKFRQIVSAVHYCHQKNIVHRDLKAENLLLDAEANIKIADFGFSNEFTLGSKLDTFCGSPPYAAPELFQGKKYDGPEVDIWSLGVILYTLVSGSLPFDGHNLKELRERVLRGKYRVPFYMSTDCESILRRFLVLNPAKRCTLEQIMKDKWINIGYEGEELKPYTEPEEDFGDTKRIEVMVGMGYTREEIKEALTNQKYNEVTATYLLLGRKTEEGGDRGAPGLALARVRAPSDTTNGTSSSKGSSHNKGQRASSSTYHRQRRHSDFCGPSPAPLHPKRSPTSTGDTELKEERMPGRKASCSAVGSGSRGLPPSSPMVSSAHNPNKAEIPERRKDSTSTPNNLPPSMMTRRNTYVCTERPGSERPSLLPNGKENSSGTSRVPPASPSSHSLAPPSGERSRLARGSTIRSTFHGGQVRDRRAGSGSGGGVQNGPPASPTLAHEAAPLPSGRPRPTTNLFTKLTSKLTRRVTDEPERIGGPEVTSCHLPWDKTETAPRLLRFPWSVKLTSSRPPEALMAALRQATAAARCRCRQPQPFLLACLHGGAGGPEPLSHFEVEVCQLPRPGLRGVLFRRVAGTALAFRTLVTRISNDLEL
UniProt Q8CHQ0: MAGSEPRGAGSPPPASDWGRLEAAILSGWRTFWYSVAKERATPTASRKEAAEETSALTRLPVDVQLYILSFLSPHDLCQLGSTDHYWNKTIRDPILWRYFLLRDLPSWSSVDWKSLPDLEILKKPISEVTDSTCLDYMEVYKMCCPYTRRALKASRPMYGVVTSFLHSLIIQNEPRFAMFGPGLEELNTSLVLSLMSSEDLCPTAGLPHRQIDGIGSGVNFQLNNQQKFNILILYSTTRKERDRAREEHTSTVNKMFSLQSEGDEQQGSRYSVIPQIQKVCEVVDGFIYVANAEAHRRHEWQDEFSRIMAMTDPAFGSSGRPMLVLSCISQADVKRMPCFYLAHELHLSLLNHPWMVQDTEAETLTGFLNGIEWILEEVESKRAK
UniProt Q8CHS2: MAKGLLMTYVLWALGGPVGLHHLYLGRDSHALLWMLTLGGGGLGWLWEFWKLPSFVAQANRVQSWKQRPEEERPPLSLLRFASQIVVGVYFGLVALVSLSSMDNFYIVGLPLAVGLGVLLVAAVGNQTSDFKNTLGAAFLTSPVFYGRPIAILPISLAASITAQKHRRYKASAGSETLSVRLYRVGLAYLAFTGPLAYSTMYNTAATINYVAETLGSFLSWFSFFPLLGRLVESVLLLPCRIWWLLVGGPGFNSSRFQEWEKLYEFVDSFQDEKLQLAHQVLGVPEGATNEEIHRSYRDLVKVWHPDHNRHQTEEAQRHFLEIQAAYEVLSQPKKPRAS
UniProt Q8CIS0: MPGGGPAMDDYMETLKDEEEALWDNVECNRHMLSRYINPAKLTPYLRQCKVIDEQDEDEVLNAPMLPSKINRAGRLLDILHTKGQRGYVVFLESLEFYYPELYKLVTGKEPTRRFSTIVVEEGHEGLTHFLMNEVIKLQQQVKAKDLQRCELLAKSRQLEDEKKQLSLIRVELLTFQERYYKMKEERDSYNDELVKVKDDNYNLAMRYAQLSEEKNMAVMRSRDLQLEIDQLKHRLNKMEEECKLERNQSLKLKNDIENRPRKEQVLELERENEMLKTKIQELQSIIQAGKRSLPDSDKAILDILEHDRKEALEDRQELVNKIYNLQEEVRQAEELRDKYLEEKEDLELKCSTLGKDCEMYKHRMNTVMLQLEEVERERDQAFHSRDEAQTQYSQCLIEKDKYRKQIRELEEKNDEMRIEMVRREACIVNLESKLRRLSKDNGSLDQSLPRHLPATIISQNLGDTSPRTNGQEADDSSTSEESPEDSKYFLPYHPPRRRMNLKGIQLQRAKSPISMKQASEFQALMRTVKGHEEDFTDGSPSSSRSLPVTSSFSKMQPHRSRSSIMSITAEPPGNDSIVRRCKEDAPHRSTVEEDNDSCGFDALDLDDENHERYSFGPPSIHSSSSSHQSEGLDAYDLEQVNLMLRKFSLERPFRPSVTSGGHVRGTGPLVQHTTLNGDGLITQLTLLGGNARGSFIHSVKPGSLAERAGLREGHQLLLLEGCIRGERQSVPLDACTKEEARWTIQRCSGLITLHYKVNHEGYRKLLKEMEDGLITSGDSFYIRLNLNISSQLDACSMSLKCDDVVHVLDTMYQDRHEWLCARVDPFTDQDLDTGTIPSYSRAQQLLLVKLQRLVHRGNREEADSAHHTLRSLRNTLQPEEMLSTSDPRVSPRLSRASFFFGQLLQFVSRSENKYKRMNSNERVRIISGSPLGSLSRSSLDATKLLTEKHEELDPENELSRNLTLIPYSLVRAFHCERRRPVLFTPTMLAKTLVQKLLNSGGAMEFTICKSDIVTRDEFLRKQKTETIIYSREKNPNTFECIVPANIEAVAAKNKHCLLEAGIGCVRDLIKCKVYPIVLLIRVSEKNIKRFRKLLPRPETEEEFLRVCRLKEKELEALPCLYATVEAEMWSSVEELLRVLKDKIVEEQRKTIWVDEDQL
UniProt Q8CI78: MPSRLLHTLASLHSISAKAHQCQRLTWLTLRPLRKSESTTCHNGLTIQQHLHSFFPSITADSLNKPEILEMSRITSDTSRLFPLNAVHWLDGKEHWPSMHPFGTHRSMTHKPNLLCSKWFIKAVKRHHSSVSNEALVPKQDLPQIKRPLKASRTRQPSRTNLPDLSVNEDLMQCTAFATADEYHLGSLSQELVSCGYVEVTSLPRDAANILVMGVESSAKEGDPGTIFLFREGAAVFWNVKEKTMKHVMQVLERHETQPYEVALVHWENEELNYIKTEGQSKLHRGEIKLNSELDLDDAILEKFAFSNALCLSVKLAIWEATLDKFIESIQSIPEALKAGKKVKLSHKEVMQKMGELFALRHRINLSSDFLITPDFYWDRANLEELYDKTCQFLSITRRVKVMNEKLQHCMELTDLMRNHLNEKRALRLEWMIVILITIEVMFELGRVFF
UniProt Q8CH25: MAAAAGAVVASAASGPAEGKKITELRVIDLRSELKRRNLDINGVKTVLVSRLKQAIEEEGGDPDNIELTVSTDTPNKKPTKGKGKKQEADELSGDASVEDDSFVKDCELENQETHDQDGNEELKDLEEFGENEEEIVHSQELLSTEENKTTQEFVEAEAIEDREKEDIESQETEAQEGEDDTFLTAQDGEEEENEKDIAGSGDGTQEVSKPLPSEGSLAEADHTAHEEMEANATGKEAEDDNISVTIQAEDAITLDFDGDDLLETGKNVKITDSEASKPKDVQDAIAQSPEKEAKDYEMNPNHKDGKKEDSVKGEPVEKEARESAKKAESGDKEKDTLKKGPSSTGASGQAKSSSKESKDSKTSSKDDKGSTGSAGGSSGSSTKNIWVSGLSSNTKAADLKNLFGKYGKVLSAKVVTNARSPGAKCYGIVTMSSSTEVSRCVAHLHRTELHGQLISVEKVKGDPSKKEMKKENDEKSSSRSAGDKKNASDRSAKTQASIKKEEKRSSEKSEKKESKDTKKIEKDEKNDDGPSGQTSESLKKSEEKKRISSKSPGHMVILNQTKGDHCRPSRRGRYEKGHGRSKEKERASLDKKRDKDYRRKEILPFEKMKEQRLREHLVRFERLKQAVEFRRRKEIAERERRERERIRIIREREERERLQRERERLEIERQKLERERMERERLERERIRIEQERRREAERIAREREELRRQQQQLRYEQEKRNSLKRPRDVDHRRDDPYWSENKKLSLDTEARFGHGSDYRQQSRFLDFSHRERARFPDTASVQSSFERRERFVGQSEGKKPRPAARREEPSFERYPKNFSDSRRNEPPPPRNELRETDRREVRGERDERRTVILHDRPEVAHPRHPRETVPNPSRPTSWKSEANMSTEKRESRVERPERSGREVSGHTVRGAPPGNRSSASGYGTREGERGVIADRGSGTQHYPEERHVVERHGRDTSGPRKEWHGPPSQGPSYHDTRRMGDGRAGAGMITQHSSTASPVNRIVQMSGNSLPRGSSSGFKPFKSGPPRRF

Some of the results follow. Small differences around the control level are noise.

Compound in this assay: CN[C@@H]1C[C@H]2O[C@@](C)([C@@H]1OC)n1c3ccccc3c3c4c(c5c6ccccc6n2c5c31)C(=O)NC4 [staurosporine]
Put plainly: log2 fold change of tryptic peptide abundance, ligand vs vehicle (limited proteolysis) (log2 ratio); higher = more trypsin-susceptible (destabilized). Particulars: ligand concentration: 20 uM; sample: mouse liver crude lysate; replicate design: treated separately.
For the target “UniProt Q8CC84 (peptide sequence: GIDENIER, peptide start residue: 169)”, the log2 fold change stood at 0.306.

Take “UniProt Q8CH09 (peptide sequence: GDMFVGPSFR, peptide start residue: 79)”: the log2 fold change is 0.333.

For the target “UniProt Q8K0R6 (peptide sequence: WSQLCLHR, peptide start residue: 222)”, the log2 fold change is -0.509.

“UniProt Q8CCA0 (peptide sequence: RPASGDDLSAK, peptide start residue: 68)”: the log2 fold change was -0.407.

For “UniProt Q8CHP5 (peptide sequence: YIASTQRPDGTWRK, peptide start residue: 15)”, the log2 fold change was -0.198.

Consider “UniProt Q8CHG5 (peptide sequence: TIYDYVR, peptide start residue: 45)”, for which the log2 fold change was -0.00708.

Consider “UniProt Q8CHH9 (peptide sequence: ELHEKFEHLKR, peptide start residue: 365)”, for which the log2 fold change was -0.106.

Consider “UniProt Q8CFX1 (peptide sequence: QAVAQILPFR, peptide start residue: 206)”, for which the log2 fold change was -0.412.

In the case of “UniProt Q8CHC8 (peptide sequence: GLGAVPLKR, peptide start residue: 1041)”, the log2 fold change was -0.243.

As to “UniProt Q8CGF6 (peptide sequence: LIHDTANIHTSTPR, peptide start residue: 532)”, the log2 fold change is -0.256.

As to “UniProt Q8CIP4 (peptide sequence: TALAPGNDR, peptide start residue: 5)”, the log2 fold change was -0.797.

On to “UniProt Q8CGC7 (peptide sequence: VIDPVAPR, peptide start residue: 499)”, for which the log2 fold change was 0.145.

In the case of “UniProt Q8CE96 (peptide sequence: RDYIQEK, peptide start residue: 340)”, the log2 fold change stood at 0.229.

For the target “UniProt Q8CIF6 (peptide sequence: TLLLAIDR, peptide start residue: 326)”, the log2 fold change turned out to be 0.273.

“UniProt Q8CF60 (peptide sequence: SFRQGMHLTR, peptide start residue: 580)”: the log2 fold change came out at 0.253.

For the target “UniProt Q8CFB4 (peptide sequence: TLPGGIQVNGPR, peptide start residue: 280)”, the log2 fold change was found to be 0.117.

Turning to “UniProt Q8JZN7 (peptide sequence: SCFGHPLAPQALEDVK, peptide start residue: 215)”, the log2 fold change was found to be 0.389.

Turning to “UniProt Q8CHQ0 (peptide sequence: AREEHTSTVNK, peptide start residue: 245)”, the log2 fold change was determined as 0.632.

Regarding “UniProt Q8CHS2 (peptide sequence: VWHPDHNR, peptide start residue: 303)”, the log2 fold change was -0.29.

Regarding “UniProt Q8K0G5 (peptide sequence: FLVGTQSLK, peptide start residue: 30)”, the log2 fold change stood at 0.0406.

Regarding “UniProt Q8CHQ9 (peptide sequence: YLKKGPIPC, peptide start residue: 230)”, the log2 fold change was -0.114.

For the target “UniProt Q8CHT0 (peptide sequence: DPQEPIMK, peptide start residue: 437)”, the log2 fold change is 0.215.

Consider “UniProt Q8JZK9 (peptide sequence: ASSELFNQK, peptide start residue: 322)”, for which the log2 fold change was -0.262.

As for “UniProt Q8JZQ2 (peptide sequence: MCMTLGGR, peptide start residue: 624)”, the log2 fold change came to 0.171.

Take “UniProt Q8CH62 (peptide sequence: YGMVHGAK, peptide start residue: 41)”: the log2 fold change was -0.0771.

For the target “UniProt Q8CIS0 (peptide sequence: IVEEQRK, peptide start residue: 224)”, the log2 fold change is 0.139.

Consider “UniProt Q8CIL4 (peptide sequence: IAVEEEKR, peptide start residue: 210)”, for which the log2 fold change was -0.478.

For the target “UniProt Q8CFG8 (peptide sequence: VPVTSLETCK, peptide start residue: 587)”, the log2 fold change is 0.232.

As to “UniProt Q8CI78 (peptide sequence: HVMQVLER, peptide start residue: 247)”, the log2 fold change is 0.345.

On to “UniProt Q8CG79 (peptide sequence: NKLNQEQNAK, peptide start residue: 274)”, for which the log2 fold change is -0.569.

Turning to “UniProt Q8CHT1 (peptide sequence: SQNLKECFRVHK, peptide start residue: 678)”, the log2 fold change is -0.723.

For the target “UniProt Q8CI52 (peptide sequence: VFHISAER, peptide start residue: 334)”, the log2 fold change was 0.156.

Regarding “UniProt Q8CIW5 (peptide sequence: KEDDDKELQTASIFGSAK, peptide start residue: 562)”, the log2 fold change came out at 0.333.

Take “UniProt Q8CF89 (peptide sequence: LSAELLLGQLNTEHTEADVRR, peptide start residue: 84)”: the log2 fold change came to 0.419.

“UniProt Q8CHD8 (peptide sequence: GWSEEPEEHAQLQR, peptide start residue: 34)”: the log2 fold change was 0.28.

As to “UniProt Q8CH25 (peptide sequence: DVQDAIAQSPEKEAK, peptide start residue: 281)”, the log2 fold change was -0.491.
